# In article PMC5785519:
# The chains behind the UniProt entries cited, without tags or fusion partners. A line that says so, or that is headed by a name, gives the form on record, which may keep a tag or linker. Residues count along the entry.
# wild-type mouse αE-catenin M1-M3 fragment (residues 276–634), GST-tag cleaved, as used for AFM structural imaging (P26231, residues 276-634): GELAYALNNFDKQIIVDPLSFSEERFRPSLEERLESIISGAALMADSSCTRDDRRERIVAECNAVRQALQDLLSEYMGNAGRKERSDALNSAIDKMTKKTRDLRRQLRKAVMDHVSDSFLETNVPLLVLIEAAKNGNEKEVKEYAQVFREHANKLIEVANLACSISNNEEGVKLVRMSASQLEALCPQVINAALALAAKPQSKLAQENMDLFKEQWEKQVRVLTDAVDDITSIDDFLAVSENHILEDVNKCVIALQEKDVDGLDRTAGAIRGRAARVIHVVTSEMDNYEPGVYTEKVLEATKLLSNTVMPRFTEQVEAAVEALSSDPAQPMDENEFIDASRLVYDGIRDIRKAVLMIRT
# mouse αE-catenin M2-M3 domain (residues 385–634) with a GST-tag at the N-terminus and a His6-tag at the C-terminus (P26231, residues 385-634): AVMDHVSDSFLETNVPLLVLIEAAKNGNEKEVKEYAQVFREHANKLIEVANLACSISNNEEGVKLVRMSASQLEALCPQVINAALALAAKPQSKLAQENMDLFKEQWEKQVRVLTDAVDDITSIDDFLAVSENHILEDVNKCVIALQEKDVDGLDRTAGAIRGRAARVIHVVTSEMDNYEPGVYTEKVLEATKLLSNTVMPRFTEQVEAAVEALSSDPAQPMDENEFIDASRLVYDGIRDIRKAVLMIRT
# These are yes or no findings as the source states them, for the method shown.
# How the values were obtained:
# [1] = molecular target: wild-type mouse αE-catenin M1-M3 fragment (residues 276–634), GST-tag cleaved, as used for AFM structural imaging (mouse) (UniProt P26231); test: AFM structural imaging; 1 nM α-catenin fragment absorbed on mica in working buffer; distribution of the area of the molecules (Supplementary Fig. 3); both purified
# [2] = molecular target: mouse αE-catenin M2-M3 domain (residues 385–634) with a GST-tag at the N-terminus and a His6-tag at the C-terminus (mouse) (UniProt P26231); test: AFM extension combined with TIRF observation; α-catenin fragment immobilised on Ni-NTA coverslip by its C-terminal His6, pulled at the GST-tag by a glutathione-modified AFM tip and held under approximately 15 pN; force curves with successful α-catenin extension; 10 nM Alexa 488-labelled vinculin in 20 mM Tris-HCl pH 8.0, 1 mM DTT, 2 mM Trolox; both purified
binding [1],binding [2],Molecule
no binding (tested: 1 nM),,"wild-type mouse αE-catenin M1-M3 fragment (residues 276–634), GST-tag cleaved, as used for AFM structural imaging (from UniProt P26231 276-634) (domain or fragment)"
,no binding (tested: 10 nM),"mouse full-length vinculin (residues 1–1066), labelled with Alexa Fluor 488 (protein, UniProt Q64727 1-1066, Alexa Fluor 488 dye on primary amines (conjugated at a 1:1 ratio)) MPVFHTRTIESILEPVAQQISHLVIMHEEGEVDGKAIPDLTAPVAAVQAAVSNLVRVGKETVQTTEDQILKRDMPPAFIKVENACTKLVQAAQMLQSDPYSVPARDYLIDGSRGILSGTSDLLLTFDEAEVRKIIRVCKGILEYLTVAEVVETMEDLVTYTKNLGPGMTKMAKMIDERQQELTHQEHRVMLVNSMNTVKELLPVLISAMKIFVTTKNSKNQGIEEALKNRNFTVEKMSAEINEIIRVLQLTSWDEDAWASKDTEAMKRALASIDSKLNQAKGWLRDPNASPGDAGEQAIRQILDEAGKVGELCAGKERREILGTCKMLGQMTDQVADLRARGQGASPVAMQKAQQVSQGLDVLTAKVENAARKLEAMTNSKQSIAKKIDAAQNWLADPNGGPEGEEQIRGALAEARKIAELCDDPKERDDILRSLGEIAALTSKLGDLRRQGKGDSPEARALAKQVATALQNLQTKTNRAVANSRPAKAAVHLEGKIEQAQRWIDNPTVDDRGVGQAAIRGLVAEGHRLANVMMGPYRQDLLAKCDRVDQLTAQLADLAARGEGESPQARALASQLQDSLKDLKAQMQEAMTQEVSDVFSDTTTPIKLLAVAATAPPDAPNREEVFDERAANFENHSGRLGATAEKAAAVGTANKSTVEGIQASVKTARELTPQVISAARILLRNPGNQAAYEHFETMKNQWIDNVEKMTGLVDEAIDTKSLLDASEEAIKKDLDKCKVAMANIQPQMLVAGATSIARRANRILLVAKREVENSEDPKFREAVKAASDELSKTISPMVMDAKAVAGNISDPGLQKSFLDSGYRILGAVAKVREAFQPQEPDFPPPPPDLEQLRLTDELAPPKPPLPEGEVPPPRPPPPEEKDEEFPEQKAGEVINQPMMMAARQLHDEARKWSSKGNDIIAAAKRMALLMAEMSRLVRGGSGTKRALIQCAKDIAKASDEVTRLAKEVAKQCTDKRIRTNLLQVCERIPTISTQLKILSTVKATMLGRTNISDEESEQATEMLVHNAQNLMQSVKETVREAEAASIKIRTDAGFTLRWVRKTPWYQ"
